Measured values reported in paper PMC4365668, “The zinc finger proteins ZNF644 and WIZ regulate the G9a/GLP complex for gene repression”.

The chains behind the UniProt entries cited, without tags or fusion partners. Where a name states a change or a piece, a line headed by the entry shows the natural chain unless it says otherwise.
UniProt Q9H9B1: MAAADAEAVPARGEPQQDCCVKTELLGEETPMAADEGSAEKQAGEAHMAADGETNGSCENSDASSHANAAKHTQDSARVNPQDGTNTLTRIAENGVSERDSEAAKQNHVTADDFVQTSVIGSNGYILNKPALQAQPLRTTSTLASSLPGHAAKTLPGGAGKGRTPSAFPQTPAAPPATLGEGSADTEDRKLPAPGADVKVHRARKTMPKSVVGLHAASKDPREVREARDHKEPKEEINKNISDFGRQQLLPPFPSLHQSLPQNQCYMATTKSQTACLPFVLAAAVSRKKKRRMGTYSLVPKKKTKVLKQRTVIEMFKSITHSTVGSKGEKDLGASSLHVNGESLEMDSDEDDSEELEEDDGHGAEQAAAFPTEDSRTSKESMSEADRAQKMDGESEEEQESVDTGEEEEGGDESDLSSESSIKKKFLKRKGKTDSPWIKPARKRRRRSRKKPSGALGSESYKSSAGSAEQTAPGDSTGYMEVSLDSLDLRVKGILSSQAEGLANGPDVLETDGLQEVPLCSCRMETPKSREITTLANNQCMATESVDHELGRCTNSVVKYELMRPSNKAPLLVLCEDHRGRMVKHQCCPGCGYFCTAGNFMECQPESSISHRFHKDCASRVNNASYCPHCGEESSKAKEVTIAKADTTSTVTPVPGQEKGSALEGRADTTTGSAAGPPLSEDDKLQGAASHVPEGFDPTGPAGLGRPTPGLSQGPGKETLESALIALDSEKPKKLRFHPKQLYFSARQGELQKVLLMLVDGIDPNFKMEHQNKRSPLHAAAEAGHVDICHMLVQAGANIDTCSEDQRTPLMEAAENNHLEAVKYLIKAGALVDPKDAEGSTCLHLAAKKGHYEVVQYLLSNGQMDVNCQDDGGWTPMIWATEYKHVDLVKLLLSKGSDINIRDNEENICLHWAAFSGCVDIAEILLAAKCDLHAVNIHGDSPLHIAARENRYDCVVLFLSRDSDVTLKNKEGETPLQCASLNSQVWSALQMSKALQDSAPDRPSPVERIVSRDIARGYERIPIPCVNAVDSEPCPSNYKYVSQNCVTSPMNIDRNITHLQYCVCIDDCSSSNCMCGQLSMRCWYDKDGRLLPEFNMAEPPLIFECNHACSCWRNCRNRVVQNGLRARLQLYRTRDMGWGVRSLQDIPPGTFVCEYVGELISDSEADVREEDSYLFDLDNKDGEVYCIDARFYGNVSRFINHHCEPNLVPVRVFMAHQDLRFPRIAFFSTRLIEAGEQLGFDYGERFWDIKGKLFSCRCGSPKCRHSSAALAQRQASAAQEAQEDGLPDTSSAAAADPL
UniProt O95785: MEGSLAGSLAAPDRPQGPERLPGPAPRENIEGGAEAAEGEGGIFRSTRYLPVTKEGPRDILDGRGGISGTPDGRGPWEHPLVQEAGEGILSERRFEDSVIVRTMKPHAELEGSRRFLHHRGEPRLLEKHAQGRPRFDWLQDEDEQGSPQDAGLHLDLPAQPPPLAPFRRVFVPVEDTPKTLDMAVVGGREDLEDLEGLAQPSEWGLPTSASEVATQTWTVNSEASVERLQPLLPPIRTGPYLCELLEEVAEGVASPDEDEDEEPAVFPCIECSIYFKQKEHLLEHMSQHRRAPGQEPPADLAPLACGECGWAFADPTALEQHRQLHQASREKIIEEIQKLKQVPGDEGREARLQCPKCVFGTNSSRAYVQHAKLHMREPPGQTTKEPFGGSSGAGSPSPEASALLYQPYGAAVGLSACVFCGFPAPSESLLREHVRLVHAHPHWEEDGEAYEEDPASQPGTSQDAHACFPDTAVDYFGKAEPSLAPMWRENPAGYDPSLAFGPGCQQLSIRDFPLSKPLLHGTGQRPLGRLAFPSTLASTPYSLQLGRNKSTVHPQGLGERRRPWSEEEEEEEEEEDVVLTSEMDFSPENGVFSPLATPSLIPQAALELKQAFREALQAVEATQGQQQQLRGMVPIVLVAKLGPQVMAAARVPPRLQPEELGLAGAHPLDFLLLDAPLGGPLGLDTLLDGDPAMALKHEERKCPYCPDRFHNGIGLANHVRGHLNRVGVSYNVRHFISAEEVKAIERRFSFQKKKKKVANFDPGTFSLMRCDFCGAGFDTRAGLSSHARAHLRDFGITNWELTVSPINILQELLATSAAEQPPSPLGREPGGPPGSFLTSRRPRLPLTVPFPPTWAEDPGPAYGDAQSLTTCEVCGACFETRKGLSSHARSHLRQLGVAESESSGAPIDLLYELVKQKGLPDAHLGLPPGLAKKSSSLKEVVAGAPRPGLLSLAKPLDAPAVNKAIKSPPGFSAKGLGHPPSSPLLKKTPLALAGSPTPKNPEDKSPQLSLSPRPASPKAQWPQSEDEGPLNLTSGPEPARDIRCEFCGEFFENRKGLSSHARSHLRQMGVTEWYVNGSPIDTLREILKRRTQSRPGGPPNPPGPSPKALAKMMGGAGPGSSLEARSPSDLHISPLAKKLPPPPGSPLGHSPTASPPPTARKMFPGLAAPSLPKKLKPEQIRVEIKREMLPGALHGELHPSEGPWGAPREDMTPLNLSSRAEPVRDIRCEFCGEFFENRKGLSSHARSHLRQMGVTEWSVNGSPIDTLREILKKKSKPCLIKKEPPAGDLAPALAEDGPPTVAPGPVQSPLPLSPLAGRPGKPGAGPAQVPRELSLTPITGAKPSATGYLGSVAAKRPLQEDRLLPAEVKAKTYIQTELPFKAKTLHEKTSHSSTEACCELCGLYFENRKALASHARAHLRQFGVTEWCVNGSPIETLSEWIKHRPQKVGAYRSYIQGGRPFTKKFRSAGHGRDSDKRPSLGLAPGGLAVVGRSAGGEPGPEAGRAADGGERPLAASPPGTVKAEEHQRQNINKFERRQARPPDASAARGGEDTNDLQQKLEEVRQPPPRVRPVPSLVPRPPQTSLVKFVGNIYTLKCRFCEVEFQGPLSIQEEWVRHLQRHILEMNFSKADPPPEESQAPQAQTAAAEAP

Key:
[1] = biological target: SFB-tagged GLP catalytic domain deletion mutant (UniProt Q9H9B1); assay: pull-down; SFB-tagged protein and its partner expressed in 293T cells; lysates on streptavidin beads, Western blotting
[2] = biological target: SFB-tagged GLP catalytic domain deletion mutant (UniProt Q9H9B1); assay: as above; remark: listed apart in the source

binding [1] | binding [2] | Molecule
binds | – | WIZ (partner of SFB-G9a and SFB-GLP in Figure 2C and 2E) (from UniProt O95785 1-1651)
– | no binding | Myc-tagged ZNF644 (wild type) (protein, UniProt Q9H582 1-1327) MRSFLQQDVNKTKSRLNVLNGLANNMDDLKINTDITGAKEELLDDNNFISDKESGVHKPKDCQTSFQKNNTLTLPEELSKDKSENALSGGQSSLFIHAGAPTVSSENFILPKGAAVNGPVSHSSLTKTSNMNKGSVSLTTGQPVDQPTTESCSTLKVAADLQLSTPQKASQHQVLFLLSDVAHAKNPTHSNKKLPTSASVGCDIQNSVGSNIKSDGTLINQVEVGEDGEDLLVKDDCVNTVTGISSGTDGFRSENDTNWDPQKEFIQFLMTNEETVDKAPPHSKIGLEKKRKRKMDVSKITRYTEDCFSDSNCVPNKSKMQEVDFLEQNEELQAVDSQKYALSKVKPESTDEDLESVDAFQHLIYNPDKCGEESSPVHTSTFLSNTLKKKCEESDSESPATFSTEEPSFYPCTKCNVNFREKKHLHRHMMYHLDGNSHFRHLNVPRPYACRECGRTFRDRNSLLKHMIIHQERRQKLMEEIRELKELQDEGRSARLQCPQCVFGTNCPKTFVQHAKTHEKDKRYYCCEECNFMAVTENELECHRGIAHGAVVKCPMVTSDIAQRKTQKKTFMKDSVVGSSKKSATYICKMCPFTTSAKSVLKKHTEYLHSSSCVDSFGSPLGLDKRKNDILEEPVDSDSTKTLTKQQSTTFPKNSALKQDVKRTFGSTSQSSSFSKIHKRPHRIQKARKSIAQSGVNMCNQNSSPHKNVTIKSSVDQKPKYFHQAAKEKSNAKANSHYLYRHKYENYRMIKKSGESYPVHFKKEEASSLNSLHLFSSSSNSHNNFISDPHKPDAKRPESFKDHRRVAVKRVIKESKKESSVGGEDLDSYPDFLHKMTVVVLQKLNSAEKKDSYETEDESSWDNVELGDYTTQAIEDETYSDINQEHVNLFPLFKSKVEGQEPGENATLSYDQNDGFYFEYYEDTGSNNFLHEIHDPQHLETADASLSKHSSVFHWTDLSLEKKSCPYCPATFETGVGLSNHVRGHLHRAGLSYEARHVVSPEQIATSDKMQHFKRTGTGTPVKRVRKAIEKSETTSEHTCQLCGGWFDTKIGLSNHVRGHLKRLGKTKWDAHKSPICVLNEMMQNEEKYEKILKALNSRRIIPRPFVAQKLASSDDFISQNVIPLEAYRNGLKTEALSVSASEEEGLNFLNEYDETKPELPSGKKNQSLTLIELLKNKRMGEERNSAISPQKIHNQTARKRFVQKCVLPLNEDSPLMYQPQKMDLTMHSALDCKQKKSRSRSGSKKKMLTLPHGADEVYILRCRFCGLVFRGPLSVQEDWIKHLQRHIVNANLPRTGAGMVEVTSLLKKPASITETSFSLLMAEAAS

Read-outs that look alike come from different tables or passages of the source. No constants are given. Whether binding was seen depends on the method and setting. Binding seen in cells or lysates may run through a third protein. For some assays here: Binding can be weak; no strength is given. For some assays here: Sequences can lack the tags named with a protein.
